Source: ChEMBL document CHEMBL3988442, “University of Dundee, Small-Polar-MMV Screening Library” (2021).

Sequences of proteins named here, by UniProt entry; tags and fusion partners are left off.
UniProt E9BF75, entry or part of it: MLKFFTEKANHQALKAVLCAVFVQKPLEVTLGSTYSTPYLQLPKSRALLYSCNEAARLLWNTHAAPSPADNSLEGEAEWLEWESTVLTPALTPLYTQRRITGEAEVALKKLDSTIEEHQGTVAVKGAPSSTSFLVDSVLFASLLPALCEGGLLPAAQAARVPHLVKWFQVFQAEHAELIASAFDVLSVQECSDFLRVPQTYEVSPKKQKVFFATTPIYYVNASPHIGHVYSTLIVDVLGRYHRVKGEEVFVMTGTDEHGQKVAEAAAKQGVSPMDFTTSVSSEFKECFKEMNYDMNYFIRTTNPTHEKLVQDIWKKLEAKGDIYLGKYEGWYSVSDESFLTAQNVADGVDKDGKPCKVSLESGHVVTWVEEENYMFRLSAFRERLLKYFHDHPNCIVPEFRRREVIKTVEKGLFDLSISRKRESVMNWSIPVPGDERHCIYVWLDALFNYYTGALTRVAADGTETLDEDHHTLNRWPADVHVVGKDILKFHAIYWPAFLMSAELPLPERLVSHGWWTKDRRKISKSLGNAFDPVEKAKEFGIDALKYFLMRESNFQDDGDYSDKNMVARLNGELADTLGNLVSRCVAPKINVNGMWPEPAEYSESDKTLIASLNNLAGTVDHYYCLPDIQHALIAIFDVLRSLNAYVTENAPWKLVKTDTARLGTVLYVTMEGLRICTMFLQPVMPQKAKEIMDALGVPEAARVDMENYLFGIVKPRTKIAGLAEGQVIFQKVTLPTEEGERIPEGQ

Results are percentages, as filed. How 0% and 100% were set is not recorded. Most values in the screen are low, and negative values occur. Compounds were drawn at random from those tested, without regard to their results.

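Methionyl-tRNA synthetase (putative), Leishmania donovani (UniProt E9BF75). Primary screen of methionyl-tRNA synthetase; the read-out is not stated. The test concentration is not given. Values are per cent inhibition. Of about 68,000 compounds tested this way, about 24 (0.035%) reached 50% or more in at least one test.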

- COc1cc(C2(C(=O)N3CCN(CC(C)(C)O)CC3)CC2)ccc1C : 7.94%
- Cc1csc(N2CCN(C(=O)CCc3nccs3)CC2)n1 : 16.34%
- CCN(CCCNc1ncnc2cc(F)c(F)cc12)S(C)(=O)=O : 13.04%
- CC(C)CN1Cc2nc(N3CCC(O)CC3)ncc2C1=O : 7.082%
- CCc1nc(C2CCCN2CCCS(N)(=O)=O)no1 (stereo not drawn) : 6.234%
- CC(C)c1nc(C(=O)N(C)c2ccc(Br)cn2)cs1 : 10.87%
- O=C(c1coc(CN2CCN(c3ccccc3F)CC2)n1)N1CC=CC1 : 9.384%
- CC(C)[C@@H]1CN(S(=O)(=O)Cc2ccccc2)C[C@H]1C(=O)O : 10.53%
- Cc1nc(C2(NCc3c(C)nn(C)c3N3CCOCC3)CCC2)no1 : 8.871%
- CCC1=N[C@@]2(CC[C@@H]3CN(CC4CC4)C[C@@H]32)C(=O)N1CC1CC1 : 15.85%
- CC(=O)NCCNC(=O)CN1CCCCC1Cn1cncn1 (stereo not drawn) : 16.62%
- CC1(C)OCC(CNC(=O)c2cnn(-c3ccc(Cl)cc3)c2N)O1 (stereo not drawn) : 0.3497%
- COc1ccc(N(c2ccccc2)c2ccc(C(=O)O)s2)cc1 : 12.7%
- CC(=O)NCC1CCN(C(=O)c2c(C)[nH]c3ccc(Cl)cc23)CC1 : -0.2688%
- Cc1noc(C2CCCN(C(=O)c3cc(Cl)cn3C)C2)n1 (stereo not drawn) : 16.88%
- CCC(=O)N1CCC(c2nc3c(c(NC)n2)CN(C)CC3)C1 (stereo not drawn) : 14.19%
- CC(=O)NC[C@]1(O)CCN(C(=O)c2ccc(F)c(Cl)c2)C[C@H]1O : 8.235%
- Fc1cccnc1Oc1cc(F)c(CN2CCCC2)c(F)c1 : 15.89%
- COc1ccc(Cl)cc1-c1nc(N)nc(N(C)C)n1 : 14.74%
- CSCC(=O)N[C@H]1CN(CC2CCOCC2)C[C@@H]1c1ccccc1 : 12.03%
- Fc1ccc(Cc2cccc(C3CCN(C4CCOCC4)CC3)n2)cc1 : 8.475%
- CCn1ccnc1CN1CCN(c2ncnc3ccccc23)CC1 : 0.4963%
- CCc1ncnc2c1CCN(C(=O)Cc1ccccn1)CC2 : 11.2%
- O=c1nc(CNc2ccccc2)[nH]n1Cc1ccccc1 : 15.49%
- Cc1nn(C)c(N2CCOCC2)c1CNCc1ccoc1C : 22.65%
- O=C(NC1CCNCC1)C1(N2CCCCC2)Cc2ccccc2C1 : 5.444%
- CCn1nc(C)c2nc(C)nc(N(C)Cc3ccco3)c21 : 18.13%
- CCOc1ccc(NC(=O)c2cc3c([nH]c2=O)CCC3)cc1 : 10.29%
- CC(C)Cc1nc(OCC(=O)O)c(C#N)c2c1CCC2 : 5.394%
- CS(=O)(=O)N1CCC2(CC1)CC(CC(=O)N1CCCC1)c1ccccc12 (stereo not drawn) : 16.74%
- COCCc1noc(CNC(=O)C2CC(=O)N(C(C)(C)C)C2)n1 (stereo not drawn) : 11.76%
- O=C(CCCn1cncn1)NC1(c2ccc(Cl)cc2)CCC1 : 26.71%
- FC(F)(F)Sc1ccc(NCc2nnc(C3CC3)o2)cc1 : 17.83%
- CCn1ncc(-c2nc3c[nH]n(CC)c-3n2)c1C : 2.941%

Some entries from above, unchanged:

Compound,Inhibition
CCC(=O)N1CCC(c2nc3c(c(NC)n2)CN(C)CC3)C1 (stereo not drawn),14.19
COc1ccc(Cl)cc1-c1nc(N)nc(N(C)C)n1,14.74
CC(C)c1nc(C(=O)N(C)c2ccc(Br)cn2)cs1,10.87